Laboratory results reported in publication PMC9105187.
Results are given in words; binding and its absence hold for the method and conditions named. In cells and extracts the contact can be indirect. Some entries that bind do so weakly or less than the wild type.

Sequences of proteins named here, by UniProt entry; tags and fusion partners are left off. A change or cut given only in a name is not applied to a line headed by its entry. A line that says so, or that is headed by a name, gives the form on record, which may keep a tag or linker. Residues count along the entry.
UniProt Q12983: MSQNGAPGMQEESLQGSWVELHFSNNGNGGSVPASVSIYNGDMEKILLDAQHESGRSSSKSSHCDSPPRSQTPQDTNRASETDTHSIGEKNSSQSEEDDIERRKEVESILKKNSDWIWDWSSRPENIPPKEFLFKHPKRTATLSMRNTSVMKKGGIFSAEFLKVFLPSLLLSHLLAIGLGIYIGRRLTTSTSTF
sarcoplasmic/endoplasmic reticulum calcium ATPase isoform 2a (human) (P16615-2, form named): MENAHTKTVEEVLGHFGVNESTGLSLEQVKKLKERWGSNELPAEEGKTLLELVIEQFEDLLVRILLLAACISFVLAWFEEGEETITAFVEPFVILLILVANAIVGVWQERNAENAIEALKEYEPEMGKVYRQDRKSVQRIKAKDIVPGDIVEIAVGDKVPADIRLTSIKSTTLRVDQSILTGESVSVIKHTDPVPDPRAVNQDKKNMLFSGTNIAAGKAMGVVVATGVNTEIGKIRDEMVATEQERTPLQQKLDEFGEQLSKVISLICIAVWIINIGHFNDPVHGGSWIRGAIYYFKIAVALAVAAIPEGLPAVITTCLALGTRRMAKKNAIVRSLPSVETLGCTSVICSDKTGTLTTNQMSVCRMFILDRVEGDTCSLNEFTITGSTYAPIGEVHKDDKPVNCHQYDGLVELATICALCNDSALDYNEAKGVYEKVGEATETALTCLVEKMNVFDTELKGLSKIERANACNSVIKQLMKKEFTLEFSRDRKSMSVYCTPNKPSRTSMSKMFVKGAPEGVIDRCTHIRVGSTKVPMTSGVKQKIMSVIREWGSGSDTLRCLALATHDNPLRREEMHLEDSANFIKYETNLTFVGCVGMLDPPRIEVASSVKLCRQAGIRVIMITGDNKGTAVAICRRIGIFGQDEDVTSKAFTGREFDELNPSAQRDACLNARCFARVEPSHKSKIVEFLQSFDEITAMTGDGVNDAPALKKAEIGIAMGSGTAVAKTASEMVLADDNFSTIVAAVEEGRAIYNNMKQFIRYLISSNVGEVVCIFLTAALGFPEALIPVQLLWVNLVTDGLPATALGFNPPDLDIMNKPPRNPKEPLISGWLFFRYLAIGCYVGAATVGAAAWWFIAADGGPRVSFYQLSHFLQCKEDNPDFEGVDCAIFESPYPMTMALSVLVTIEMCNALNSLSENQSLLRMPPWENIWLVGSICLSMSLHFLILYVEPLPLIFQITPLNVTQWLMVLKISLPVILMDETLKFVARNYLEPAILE
UniProt O95202, residues 116-739: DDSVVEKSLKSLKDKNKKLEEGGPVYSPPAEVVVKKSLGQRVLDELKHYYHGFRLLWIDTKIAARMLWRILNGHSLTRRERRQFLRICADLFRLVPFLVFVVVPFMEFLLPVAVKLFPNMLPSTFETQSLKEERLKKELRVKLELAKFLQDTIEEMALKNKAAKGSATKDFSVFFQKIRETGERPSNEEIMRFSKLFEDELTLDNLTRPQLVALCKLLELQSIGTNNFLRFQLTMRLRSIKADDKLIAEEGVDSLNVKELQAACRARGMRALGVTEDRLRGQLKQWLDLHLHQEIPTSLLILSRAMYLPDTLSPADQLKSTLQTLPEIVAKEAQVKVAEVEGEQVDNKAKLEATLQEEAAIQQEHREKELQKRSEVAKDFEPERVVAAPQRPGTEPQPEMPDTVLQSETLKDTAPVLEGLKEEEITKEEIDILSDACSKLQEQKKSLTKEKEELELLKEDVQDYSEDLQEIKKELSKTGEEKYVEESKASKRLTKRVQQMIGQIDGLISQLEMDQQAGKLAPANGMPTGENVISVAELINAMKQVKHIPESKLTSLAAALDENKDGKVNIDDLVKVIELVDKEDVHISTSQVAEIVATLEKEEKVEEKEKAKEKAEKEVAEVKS
UniProt P04406: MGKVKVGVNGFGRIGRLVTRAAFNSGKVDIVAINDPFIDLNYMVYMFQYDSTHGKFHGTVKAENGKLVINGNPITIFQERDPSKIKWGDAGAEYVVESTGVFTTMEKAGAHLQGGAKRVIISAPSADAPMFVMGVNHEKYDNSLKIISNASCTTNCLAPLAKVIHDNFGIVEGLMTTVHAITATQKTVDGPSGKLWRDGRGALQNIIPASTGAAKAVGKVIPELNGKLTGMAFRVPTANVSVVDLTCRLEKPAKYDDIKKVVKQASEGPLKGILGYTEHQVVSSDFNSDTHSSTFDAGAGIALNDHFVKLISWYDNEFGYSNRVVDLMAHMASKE
UniProt P21796: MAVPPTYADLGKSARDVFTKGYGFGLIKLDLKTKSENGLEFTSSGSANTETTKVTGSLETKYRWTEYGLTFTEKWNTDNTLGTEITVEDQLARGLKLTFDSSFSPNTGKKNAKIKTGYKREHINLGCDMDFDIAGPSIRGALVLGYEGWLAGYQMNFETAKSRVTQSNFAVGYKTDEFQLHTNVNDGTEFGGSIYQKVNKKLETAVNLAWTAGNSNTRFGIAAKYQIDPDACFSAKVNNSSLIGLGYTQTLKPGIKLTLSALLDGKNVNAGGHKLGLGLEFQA

Molecular target: Bcl-2 nineteen kilodalton interacting protein 3 (human) (human (endogenous in LV myocardium)) (UniProt Q12983)
Test: co-IP; 250 ug lysate of human HFrEF LV myocardium (n = 3) with 5 ug mouse monoclonal BNIP3 antibody (Abcam ab10433), Dynabeads Protein G; western blot

binding	Substance
binds	sarcoplasmic/endoplasmic reticulum calcium ATPase isoform 2a (human) (from UniProt P16615-2 1-997)
binds	mt-proton/calcium exchanger protein LETM1 (human) (from UniProt O95202 116-739)
no binding	GAPDH (human) (from UniProt P04406 1-335)
binds	voltage-dependent anion channel isoform 1 (human) (from UniProt P21796 1-283)
